# Experimental data: PubChem BioAssay (EPA / NIEHS)
# Sequences of proteins named here, by UniProt entry; tags and fusion partners are left off. A change or cut given only in a name is not applied to a line headed by its entry.
# UniProt P19793: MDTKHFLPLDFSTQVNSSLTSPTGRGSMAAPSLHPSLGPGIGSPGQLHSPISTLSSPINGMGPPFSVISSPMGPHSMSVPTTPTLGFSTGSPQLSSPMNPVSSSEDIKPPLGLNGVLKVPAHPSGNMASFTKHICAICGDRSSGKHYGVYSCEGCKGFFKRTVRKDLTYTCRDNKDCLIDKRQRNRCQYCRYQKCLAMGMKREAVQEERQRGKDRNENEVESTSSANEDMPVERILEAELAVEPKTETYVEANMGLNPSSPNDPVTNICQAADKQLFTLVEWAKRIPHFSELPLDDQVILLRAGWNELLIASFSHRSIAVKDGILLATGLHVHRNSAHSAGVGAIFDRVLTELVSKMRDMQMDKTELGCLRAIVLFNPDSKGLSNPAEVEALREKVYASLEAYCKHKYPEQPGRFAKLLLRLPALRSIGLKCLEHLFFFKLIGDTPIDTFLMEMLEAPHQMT
# UniProt P04637, whole entry, looked up: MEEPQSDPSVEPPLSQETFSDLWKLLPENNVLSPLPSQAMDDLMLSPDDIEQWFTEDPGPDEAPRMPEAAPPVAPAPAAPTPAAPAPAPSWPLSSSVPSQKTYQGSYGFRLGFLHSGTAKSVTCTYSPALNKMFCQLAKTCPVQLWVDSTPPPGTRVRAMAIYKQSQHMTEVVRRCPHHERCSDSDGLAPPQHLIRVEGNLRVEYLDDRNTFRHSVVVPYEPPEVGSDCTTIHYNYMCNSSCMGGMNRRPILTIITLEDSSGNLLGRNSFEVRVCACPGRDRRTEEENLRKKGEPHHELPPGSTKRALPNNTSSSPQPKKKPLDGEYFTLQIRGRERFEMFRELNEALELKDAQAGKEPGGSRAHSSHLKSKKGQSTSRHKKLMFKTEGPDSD
# “And” between values parts separate entries of the source, which are not always exact repeats. Equal values may be shown once. Inconclusive results, whose numbers are uncertain, are shown with a selection of clear calls. For some assays here: Where the call is inconclusive, the potency comes from a doubtful curve fit. The source holds several records for some structures; these can differ, active in one and inactive in another. The source made the active and inactive calls. The calls were made as follows: active = hit-call score of the fitted dose curve at least 0.9, where 1 is the maximum; inconclusive = response in the unintended direction; inactive = score below 0.9.
# Experiments:
# [1] = target: Retinoic acid receptor RXR-alpha (Homo sapiens) (UniProt P19793); assay: OT_NURR1_NURR1RXRa_0480: Odyssey Thera (OT) 8-hour HEK293T Protein Complementation Assay for Nurr1/retinoid X receptor (RXR) (AID 2283385)
# In short: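 HEK293T cells expressing Nurr1 and RXRα fused to reporter fragments were dosed with compound for 8 hours. Complex formation was read as fluorescence intensity and analysed as gain of signal against DMSO as baseline.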
# [2] = target: Retinoic acid receptor RXR-alpha (Homo sapiens) (UniProt P19793); assay: OT_NURR1_NURR1RXRa_1440: Odyssey Thera (OT) 24-hour HEK293T Protein Complementation Assay for Nurr1/retinoid X receptor (RXR) (AID 2283386)
# In short: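 HEK293T cells were dosed with compound and read 24 h later by fluorescence intensity in a protein-fragment complementation format, where Nurr1–RXRα interaction reconstitutes a split reporter. Activity was fitted as gain of signal relative to DMSO baseline.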
# [3] = TOX21_p53_BLA_p2_viability: Viability Assessment in the Tox21 HCT-116 p53 Agonism Beta-lactamase Assay, Phase 2 (AID 2283591);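 also: actives lower the ATP signal meaning cytotoxicity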
# In short: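 HCT-116 p53-bla cells (4000/well) rested 5 h at 37C, then received compounds in DMSO (217-fold dilution) for 16 h at 37C, 5% CO2. After the CCF4 read, CellTiter-Glo was added; ATP luminescence was read after 30 min at room temperature.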
# [4] = target: Cellular tumor antigen p53 (Homo sapiens) (UniProt P04637); assay: TOX21_p53_BLA_p2_ratio: Tox21 HCT-116 p53 Agonism Beta-lactamase Assay, Ratio, Phase 2 (AID 2283592)
# In short: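 An inducible beta-lactamase reporter in HCT116 cells signals p53 pathway activation. After 16 h chemical exposure at 37C, cells load CCF4-AM substrate for 2 h at room temperature; activity is the cleaved/uncleaved emission ratio relative to DMSO.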
# [5] = TOX21_p53_BLA_p3_viability: Viability Assessment in the Tox21 HCT-116 p53 Agonism Beta-lactamase Assay, Phase 3 (AID 2283593);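 also: cells exposed to compound for 16 h before reading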
# In short: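 HCT-116 cells (4000/well) rested 5 h at 37C, then got DMSO compounds by pin tool (217-fold dilution) for 16 h at 37C, 5% CO2. After the bla read, CellTiter-Glo was added and luminescence read at 30 min, room temperature.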
# [6] = target: Cellular tumor antigen p53 (Homo sapiens) (UniProt P04637); assay: TOX21_p53_BLA_p3_ratio: Tox21 HCT-116 p53 Agonism Beta-lactamase Assay, Ratio, Phase 3 (AID 2283596)
# In short: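 HCT116 p53-bla cells (4000/well) given compound in DMSO (217-fold dilution) after 5 h, incubated 16 h at 37C. CCF4-AM substrate 2 h at room temperature; 460/530 nm emission ratio, gain fitted against DMSO.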
# [7] = TOX21_p53_BLA_p5_viability: Viability Assessment in the Tox21 HCT-116 p53 Agonism Beta-lactamase Assay, Phase 5 (AID 2283600)
# In short: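 Counter-readout for cytotoxicity: ATP-dependent luminescence from CellTiter-Glo, read in the beta-lactamase wells after 30 min at RT, following a 16 h compound exposure at 37C.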
# [8] = target: Cellular tumor antigen p53 (Homo sapiens) (UniProt P04637); assay: TOX21_p53_BLA_p4_ratio: Tox21 HCT-116 p53 Agonism Beta-lactamase Assay, Ratio, Phase 4 (AID 2283601)
# In short: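 HCT116 cells carrying an inducible beta-lactamase reporter were plated at 4000 cells/well, rested 5 h, then exposed to compounds in DMSO (217-fold dilution) for 16 h at 37C. CCF4-AM substrate was loaded 2 h at room temperature; 460/530 nm emission ratio scored gain-of-signal versus DMSO.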
# [9] = TOX21_p53_BLA_p4_viability: Viability Assessment in the Tox21 HCT-116 p53 Agonism Beta-lactamase Assay, Phase 4 (AID 2283597);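 also: hits lower the luminescence signal meaning cytotoxicity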
# In short: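 Compound exposure of HCT116 cells lasts 16 h at 37C, 5% CO2, with DMSO stocks diluted 217-fold. Cellular ATP is then quantified by CellTiter-Glo luminescence after 30 min at room temperature.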
# [10] = target: Cellular tumor antigen p53 (Homo sapiens) (UniProt P04637); assay: TOX21_p53_BLA_p5_ratio: Tox21 HCT-116 p53 Agonism Beta-lactamase Assay, Ratio, Phase 5 (AID 2283599)
# In short: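 HCT-116 cells carrying a p53-inducible beta-lactamase reporter were seeded at 4000 cells/well and dosed after 5 h with compound in DMSO (217-fold dilution). After 16 h at 37C, CCF4-AM substrate was added for 2 h, and the 460/530 nm emission ratio was scored as gain-of-signal versus DMSO.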
# [11] = Tanguay_ZF_120hpf_EYE_legacy: (Legacy) Oregon State University Tanguay Lab 120 Hour Post-fertilization zebrafish Assay for Eye Malformation (AID 2283636);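 also: binary presence or absence of eye malformation scored by brightfield in 120 hpf larvae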
# In short: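 Dechorionated wild-type Tropical 5D zebrafish embryos were exposed statically from 6 hpf, one per well, to 120 hpf at 28C in sealed, foil-covered plates with 0.64% DMSO. Eye malformation was scored present/absent by brightfield microscopy against DMSO controls.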
# [12] = Tanguay_ZF_120hpf_JAW_legacy: (Legacy) Oregon State University Tanguay Lab 120 Hour Post-fertilization zebrafish Assay for Jaw Malformation (AID 2283638);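 also: active means more embryos with jaw malformation than DMSO controls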
# In short: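 Static waterborne exposure of dechorionated wild-type (Tropical 5D) zebrafish from 6 to 120 hpf at 28C, 0.64% DMSO vehicle; 5uM trimethyltin chloride served as positive control. Jaw morphology recorded as binary at 120 hpf.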
# [13] = Tanguay_ZF_120hpf_SNOU_legacy: (Legacy) Oregon State University Tanguay Lab 120 Hour Post-fertilization zebrafish Assay for Snout Malformation (AID 2283637)
# In short: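 Tropical 5D wild-type zebrafish embryos, dechorionated with pronase at 4 hpf, were exposed singly from 6 hpf to 120 hpf statically at 28C in 0.64% DMSO. Snout malformation was scored present/absent by brightfield microscopy, fitted against DMSO.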
# [14] = Tanguay_ZF_120hpf_AXIS_legacy: (Legacy) Oregon State University Tanguay Lab 120 Hour Post-fertilization zebrafish Assay for Body Axis Malformation (AID 2283635);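 as to AC50: potency for an increased fraction of larvae scored with body axis malformation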
# In short: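 Static 6–120 hpf chemical exposure of dechorionated wild-type 5D zebrafish, one per well at 28C; morphology endpoint scored binary at 120 hpf relative to DMSO control.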
compound,measurement,setting,value
Cc1cccc(O)c1,outcome,[1],inactive
same,AC50,[2],inconclusive: 50 µM
same,AC50,[3],inconclusive: 46.1 µM
same,outcome,[3],inactive
same,AC50,[4],inconclusive: 46.1 µM and inconclusive: 47.5 µM
same,AC50,[5],inconclusive: 46.1 µM and inconclusive: 47.5 µM
same,AC50,[6],inconclusive: 47.5 µM
same,AC50,[7],inconclusive: 76.4 µM
same,AC50,[8],inconclusive: 46.1 µM and inconclusive: 47.5 µM
CC(=O)N1CCN(c2ccc(OC[C@H]3CO[C@](Cn4ccnc4)(c4ccc(Cl)cc4Cl)O3)cc2)CC1,AC50,[1],inconclusive: 26.8 µM and inconclusive: 92.7 µM
same,AC50,[2],inconclusive: 68.9 µM and inconclusive: 90.1 µM
same,AC50,[3],active: 56.7 µM
same,AC50,[5],active: 46.1 µM
same,AC50,[6],active: 58.3 µM
same,AC50,[9],active: 58.7 µM
same,AC50,[10],active: 46.1 µM
same,AC50,[7],active: 64.4 µM
same,AC50,[8],active: 44.3 µM
same,AC50,[11],inconclusive: 112 µM
same,AC50,[12],inconclusive: 13.9 µM
CC[C@@H]1C[C@H](N(Cc2cc(C(F)(F)F)cc(C(F)(F)F)c2)C(C)=O)c2cc(C(F)(F)F)ccc2N1C(=O)OC(C)C,AC50,[1],inconclusive: 3.95 µM
same,AC50,[2],inconclusive: 9.92 µM
same,AC50,[3],inconclusive: 46.1 µM
same,AC50,[5],inconclusive: 82.5 µM
same,outcome,[9],inactive
O=C(OCCCCCCOC(=O)c1ccccc1)c1ccccc1,AC50,[1],inconclusive: 0.279 µM
same,AC50,[2],inconclusive: 50 µM and inconclusive: 27.5 µM
same,AC50,[3],inconclusive: 46.1 µM
same,AC50,[4],inconclusive: 77.6 µM
same,AC50,[5],inconclusive: 46.1 µM
same,AC50,[6],inconclusive: 46.1 µM
same,AC50,[7],inconclusive: 46.1 µM
same,AC50,[11],inconclusive: 3.93 µM
same,AC50,[13],inconclusive: 3.05 µM
Cc1cc(CCN2CCN(c3nsc4ccccc34)CC2)cc2c1NC(=O)CC2(C)C,AC50,[1],inconclusive: 28.5 µM and inconclusive: 19.4 µM
same,AC50,[2],inconclusive: 22.7 µM and inconclusive: 6.61 µM
same,AC50,[3],active: 60.5 µM
same,AC50,[4],active: 71.6 µM
same,AC50,[5],active: 19.9 µM
same,AC50,[9],active: 74.3 µM
same,AC50,[8],active: 82.8 µM
same,AC50,[14],active: 5.38 µM
same,AC50,[11],active: 3.05 µM
CN(C)c1ccc(C(=N)c2ccc(N(C)C)cc2)cc1,AC50,[1],active: 27.7 µM
same,AC50,[2],active: 26.7 µM
same,AC50,[3],inconclusive: 0.838 µM
same,AC50,[4],active: 896 nM and active: 2.2 µM
same,AC50,[5],inconclusive: 45.6 µM
same,outcome,[5],inactive
same,AC50,[6],active: 13.2 µM and active: 6.84 µM
same,AC50,[9],inconclusive: 45.6 µM
same,AC50,[10],active: 2.63 µM and active: 2.56 µM
same,AC50,[8],active: 936 nM and active: 1.49 µM
OCCOCCOCCOCCO,outcome,[1],inactive
same,outcome,[2],inactive
same,AC50,[3],inconclusive: 85.3 µM
same,AC50,[4],inconclusive: 46.9 µM
same,AC50,[5],inconclusive: 46.9 µM
same,AC50,[10],inconclusive: 86.6 µM
same,AC50,[7],inconclusive: 46.1 µM
same,AC50,[8],inconclusive: 46.1 µM
CCCCCCCCCCCCOC(=O)c1cc(O)c(O)c(O)c1,AC50,[1],inconclusive: 89.2 µM
same,AC50,[2],inconclusive: 72 µM
same,AC50,[3],active: 21.7 µM and active: 28.2 µM
same,AC50,[4],active: 24.7 µM and active: 32.4 µM
same,AC50,[5],active: 49.2 µM and active: 77.1 µM
same,AC50,[6],active: 57.6 µM and active: 81.5 µM
same,AC50,[9],active: 46.1 µM and active: 30.9 µM
same,AC50,[10],active: 48.3 µM and active: 77 µM
same,AC50,[7],active: 41.2 µM and active: 78.9 µM
same,AC50,[8],active: 53 µM and active: 36.9 µM
CCCCCCCC/C=C\CCCCCCCC(=O)O,AC50,[1],inconclusive: 50 µM
same,AC50,[2],inconclusive: 29.6 µM
same,AC50,[3],inconclusive: 46.3 µM and inconclusive: 23 µM
same,AC50,[4],inconclusive: 37.3 µM
same,AC50,[5],inconclusive: 87.9 µM
same,AC50,[9],inconclusive: 23 µM
same,outcome,[7],inactive
CCCCOC(=O)C(C)Oc1ccc(Oc2ccc(C(F)(F)F)cn2)cc1 (stereo not given),AC50,[1],active: 65.1 µM
same,outcome,[2],inactive
same,outcome,[3],inactive
same,AC50,[4],inconclusive: 46.1 µM
same,outcome,[8],inactive
same,outcome,[14],inactive
Cc1cccc2ccccc12,outcome,[1],inactive
same,AC50,[2],inconclusive: 50 µM
same,AC50,[3],inconclusive: 46.6 µM
same,AC50,[4],inconclusive: 46.6 µM
same,outcome,[4],inactive
same,AC50,[5],inconclusive: 46.6 µM
same,outcome,[5],inactive
same,outcome,[9],inactive
same,AC50,[10],inconclusive: 46.6 µM
same,AC50,[8],inconclusive: 46.6 µM
same,outcome,[8],inactive
same,AC50,[13],inconclusive: 57.5 µM
O=C(O)Cc1ccccc1Nc1c(Cl)cccc1Cl,AC50,[1],inconclusive: 10.1 µM and inconclusive: 27 µM
same,AC50,[2],inconclusive: 30.3 µM and inconclusive: 50 µM
same,AC50,[3],inconclusive: 23 µM
same,AC50,[4],active: 68.9 µM
same,AC50,[5],inconclusive: 23 µM
same,outcome,[5],inactive
same,AC50,[9],active: 46.1 µM and inconclusive: 23 µM
same,AC50,[7],inconclusive: 289 nM and inconclusive: 23 µM
same,AC50,[8],active: 71.7 µM
CC(C)c1cc(C(C)C)cc(C(C)C)c1,AC50,[1],inconclusive: 50 µM
same,AC50,[2],inconclusive: 28 µM
same,AC50,[4],inconclusive: 46.1 µM
same,AC50,[5],inconclusive: 46.1 µM
same,AC50,[10],inconclusive: 46.1 µM

# Reformatted bar-delimited: entries from further up.
compound | measurement | setting | value
OCCOCCOCCOCCO | AC50 | [7] | inconclusive: 46.1 µM
same | AC50 | [8] | inconclusive: 46.1 µM
CCCCCCCCCCCCOC(=O)c1cc(O)c(O)c(O)c1 | AC50 | [1] | inconclusive: 89.2 µM
same | AC50 | [2] | inconclusive: 72 µM
same | AC50 | [3] | active: 21.7 µM and active: 28.2 µM
